Experimental data as given in US7029692B1, “Transdermal therapeutic system with nicotine and addition of monoterpene ketones” (LTS Lohmann Therapie-Systeme AG, priority 1999, dated 2006).

Experiment: simplified smelling-test model: odour assessment of 7%-wt. nicotine in miglyol 812 with odour-improving additive
Settings: 6 subjects, scale 3.0-12.0, higher = more favourable
[1] = 0.5%-wt. additive in 7%-wt. nicotine in miglyol 812
[2] = 1.0%-wt. additive in 7%-wt. nicotine in miglyol 812
[3] = 2.0%-wt. additive in 7%-wt. nicotine in miglyol 812

Row | SMILES | odour rating, mean value (nicotine smell rating + 2 x overall impression rating) [1] | odour rating, mean value (nicotine smell rating + 2 x overall impression rating) [2] | odour rating, mean value (nicotine smell rating + 2 x overall impression rating) [3]
1 | CC1CCC(C(C)C)C(O)C1 (single isomer, unassigned; (-)) [(−)-Menthol, (−)-menthol, reference compound] | 4.0 | 4.1 | 4.9
2 | CC(C)[C@@H]1CC[C@@H](C)CC1=O [(−)-Menthone, (−)-menthone] | 6.6 | 6.4 | 8.6
